Screening data

Source: PubChem BioAssay AID504749 (NCATS, 2011).

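A panel of P. falciparum strains inside erythrocytes is exposed to compounds for three days, then a DNA-binding dye reports the amount of parasite DNA. Each compound was titrated across a series from about 0.000037 to 29 µM. The number is the fitted AC50, the concentration giving a half-maximal change in signal; a lower value means higher potency, whether the curve shows a decrease or an increase. Calls follow the curve class and fit quality: every row here is inconclusive, covering signal-raising curves and weak, poorly fitted, partial or highest-dose-only inhibition curves.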

Values are in µM. All entries here are filed as inconclusive. Only part of the assay is shown, chiefly results filed as inconclusive. Potencies fitted to partial, single-point or poorly fitting curves are rough.

SMILES,condition,fitted potency (µM),curve as filed
Oc1ccc(C(O)CNCCCCCCNCC(O)c2ccc(O)c(O)c2)cc1O (stereo unspecified),CP191,10,"inhibitor, single point"
Oc1ccc(C(O)CNCCCCCCNCC(O)c2ccc(O)c(O)c2)cc1O (stereo unspecified),P94_40,10,"inhibitor, single point"
Oc1ccc(C(O)CNCCCCCCNCC(O)c2ccc(O)c(O)c2)cc1O (stereo unspecified),SC27B,17.78,"inhibitor, single point"
Oc1ccc(C(O)CNCCCCCCNCC(O)c2ccc(O)c(O)c2)cc1O (stereo unspecified),PAD,12.59,"inhibitor, single point"
Oc1ccc(C(O)CNCCCCCCNCC(O)c2ccc(O)c(O)c2)cc1O (stereo unspecified),CP256,14.13,"inhibitor, single point"
Oc1ccc(C(O)CNCCCCCCNCC(O)c2ccc(O)c(O)c2)cc1O (stereo unspecified),CP305,16.94,"inhibitor, single point"
Oc1ccc(C(O)CNCCCCCCNCC(O)c2ccc(O)c(O)c2)cc1O (stereo unspecified),CP185,17.78,"inhibitor, single point"
Oc1ccc(C(O)CNCCCCCCNCC(O)c2ccc(O)c(O)c2)cc1O (stereo unspecified),CP211,19.01,"inhibitor, single point"
Oc1ccc(C(O)CNCCCCCCNCC(O)c2ccc(O)c(O)c2)cc1O (stereo unspecified),CP250,17.78,"inhibitor, single point"
Oc1ccc(C(O)CNCCCCCCNCC(O)c2ccc(O)c(O)c2)cc1O (stereo unspecified),CP192,12,"inhibitor, single point"
Oc1ccc(C(O)CNCCCCCCNCC(O)c2ccc(O)c(O)c2)cc1O (stereo unspecified),N140,17.78,"inhibitor, single point"
Oc1ccc(C(O)CNCCCCCCNCC(O)c2ccc(O)c(O)c2)cc1O (stereo unspecified),CP329,19.01,"inhibitor, single point"
Oc1ccc(C(O)CNCCCCCCNCC(O)c2ccc(O)c(O)c2)cc1O (stereo unspecified),TAB109,10,"inhibitor, single point"
Oc1ccc(C(O)CNCCCCCCNCC(O)c2ccc(O)c(O)c2)cc1O (stereo unspecified),CP265,17.78,"inhibitor, single point"
Oc1ccc(C(O)CNCCCCCCNCC(O)c2ccc(O)c(O)c2)cc1O (stereo unspecified),AS120,12.59,"inhibitor, single point"
Oc1ccc(C(O)CNCCCCCCNCC(O)c2ccc(O)c(O)c2)cc1O (stereo unspecified),CP215,16.94,"inhibitor, single point"
Oc1ccc(C(O)CNCCCCCCNCC(O)c2ccc(O)c(O)c2)cc1O (stereo unspecified),CP325,19.01,"inhibitor, single point"
Oc1ccc(C(O)CNCCCCCCNCC(O)c2ccc(O)c(O)c2)cc1O (stereo unspecified),TAB113,17.78,"inhibitor, single point"
Oc1ccc(C(O)CNCCCCCCNCC(O)c2ccc(O)c(O)c2)cc1O (stereo unspecified),3D7,17.78,"inhibitor, single point"
Oc1ccc(C(O)CNCCCCCCNCC(O)c2ccc(O)c(O)c2)cc1O (stereo unspecified),PC26,15.1,"inhibitor, single point"
Oc1ccc(C(O)CNCCCCCCNCC(O)c2ccc(O)c(O)c2)cc1O (stereo unspecified),CP194,19.01,"inhibitor, single point"
Oc1ccc(C(O)CNCCCCCCNCC(O)c2ccc(O)c(O)c2)cc1O (stereo unspecified),ATS95,11.22,"inhibitor, single point"
Oc1ccc(C(O)CNCCCCCCNCC(O)c2ccc(O)c(O)c2)cc1O (stereo unspecified),CP238,17.78,"inhibitor, single point"
Oc1ccc(C(O)CNCCCCCCNCC(O)c2ccc(O)c(O)c2)cc1O (stereo unspecified),CP297,19.01,"inhibitor, single point"
Oc1ccc(C(O)CNCCCCCCNCC(O)c2ccc(O)c(O)c2)cc1O (stereo unspecified),CP201,19.01,"inhibitor, single point"
Oc1ccc(C(O)CNCCCCCCNCC(O)c2ccc(O)c(O)c2)cc1O (stereo unspecified),JCK,12.59,"inhibitor, partial curve, poor fit"
Oc1ccc(C(O)CNCCCCCCNCC(O)c2ccc(O)c(O)c2)cc1O (stereo unspecified),C2A,11.22,"inhibitor, single point"
O=NCc1ccc([N+](=O)[O-])o1,P93_24,7.08,"inhibitor, partial curve"
O=NCc1ccc([N+](=O)[O-])o1,CP252,17.78,"inhibitor, single point"
O=NCc1ccc([N+](=O)[O-])o1,CP247,14.13,"inhibitor, single point"
O=NCc1ccc([N+](=O)[O-])o1,CP215,6.012,"inhibitor, partial curve, poor fit"
O=NCc1ccc([N+](=O)[O-])o1,PAD,10,"inhibitor, single point"
O=NCc1ccc([N+](=O)[O-])o1,ECU,10,"inhibitor, single point"
O=NCc1ccc([N+](=O)[O-])o1,DIV14,12,"inhibitor, single point"
O=NCc1ccc([N+](=O)[O-])o1,DIV30,19.01,"inhibitor, partial curve, poor fit"
O=NCc1ccc([N+](=O)[O-])o1,CP268,19.01,"inhibitor, partial curve, poor fit"

For reference, 2 entries once more:

Result for Oc1ccc(C(O)CNCCCCCCNCC(O)c2ccc(O)c(O)c2)cc1O (stereo unspecified) [SC27B] was fitted potency 17.78 µM (inhibitor, single point).
Result for O=NCc1ccc([N+](=O)[O-])o1 [DIV14] was fitted potency 12 µM (inhibitor, single point).